Laboratory results taken from the supplement of paper PMC9233669.
Variants at the floor of the assay are shown more often than the library holds them.

Legend:
[1] = tested on: biotinyl-Phe-oxazolone; experiment: self-aminoacylation, catalytic enhancement (BFO) (fold over background); higher = more active; k-Seq, kA / k0A0; sequences stand for … in GGGAAUGGAUCCACAUCUACGAAUUC…UUCACUGCAGACUUGACGAAGCUG
Procedure, shortened: (§1)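 Catalytic enhancement equals the median kA over the uncatalyzed rate, the latter read from the low-activity peak of a bimodal Gaussian fit. Values of kA came from fitting each sequence's fraction reacted to a pseudo-first-order model, with 1000 bootstraps. Reacted RNA was captured with streptavidin and quantified by triplicate qPCR and Illumina sequencing after 90 minutes at room temperature with 2–1250 μM biotinyl-aminoacyl-oxazolone and 0.43 μM mutagenized RNA pools bearing a 21-nt variable region.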

[2] = tested on: biotinyl-Met-oxazolone; experiment: self-aminoacylation, catalytic enhancement (BMO) (fold over background); higher = more active; k-Seq, kA / k0A0; sequences stand for … in GGGAAUGGAUCCACAUCUACGAAUUC…UUCACUGCAGACUUGACGAAGCUG
Procedure, shortened: as §1

[3] = tested on: biotinyl-Trp-oxazolone; experiment: self-aminoacylation, catalytic enhancement (BWO) (fold over background); higher = more active; k-Seq, kA / k0A0; sequences stand for … in GGGAAUGGAUCCACAUCUACGAAUUC…UUCACUGCAGACUUGACGAAGCUG
Procedure, shortened: as §1

[4] = tested on: biotinyl-Ile-oxazolone; experiment: self-aminoacylation, catalytic enhancement (BIO) (fold over background); higher = more active; k-Seq, kA / k0A0; sequences stand for … in GGGAAUGGAUCCACAUCUACGAAUUC…UUCACUGCAGACUUGACGAAGCUG
Procedure, shortened: as §1

[5] = tested on: biotinyl-Leu-oxazolone; experiment: self-aminoacylation, catalytic enhancement (BLO) (fold over background); higher = more active; k-Seq, kA / k0A0; sequences stand for … in GGGAAUGGAUCCACAUCUACGAAUUC…UUCACUGCAGACUUGACGAAGCUG
Procedure, shortened: as §1

[6] = tested on: biotinyl-Val-oxazolone; experiment: self-aminoacylation, catalytic enhancement (BVO) (fold over background); higher = more active; k-Seq, kA / k0A0; sequences stand for … in GGGAAUGGAUCCACAUCUACGAAUUC…UUCACUGCAGACUUGACGAAGCUG
Procedure, shortened: as §1

| Sequence | self-aminoacylation [1] | self-aminoacylation [2] | self-aminoacylation [3] | self-aminoacylation [4] | self-aminoacylation [5] | self-aminoacylation [6] |
| --- | --- | --- | --- | --- | --- | --- |
| UUACUUCAAACGAUCGGUCUG [Fam1A.1 aminoacylation ribozyme variant] | 0.951 | 0.846 | 1.38 | 0.933 | 0.848 | 0.809 |
| UAGUUUGCUAAUAGUCUCAAG [Fam3.1 aminoacylation ribozyme variant] | 3.9 | 1.03 | 1.59 | 1.33 | 1.01 | 1.12 |
| CUACUUCAGACAAUUGGUCUG [Fam1A.1 aminoacylation ribozyme variant] | 0.687 | 0.766 | 0.601 | 0.877 | 0.754 | 0.758 |
| CUACACUUCAAGCAAUCGGGC [Fam1B.1 aminoacylation ribozyme variant] | 0.999 | 1.95 | 2.02 | 1.48 | 1.27 | 1.42 |
| CUACACUUCAAGCAAUCAGUC [Fam1B.1 aminoacylation ribozyme variant] | 21 | 0.718 | 6.32 | 0.668 | 0.754 | 0.886 |
| AAGUUUGCUACUAGUCGCAGG [Fam3.1 aminoacylation ribozyme variant] | 1.2 | 1.24 | 1.53 | 1.5 | 1.29 | 1.39 |
| AUUCCCCUAGGUCAUCAGGUG [Fam2.2 aminoacylation ribozyme variant] | 29.4 | 8.46 | 7.46 | 6.44 | 8.19 | 6.96 |
| CCACACUUCAAGCAAAUGGUC [Fam1B.1 aminoacylation ribozyme variant] | 1 | 0.45 | 0.41 | 0.787 | 0.547 | 0.637 |
| AUUACCCUGGCGAUCGAGUGA [Fam2.1 aminoacylation ribozyme variant] | 24.3 | 4.06 | 4.59 | 2.12 | 4.77 | 2.69 |
| CUACUUCAAUCAGUCGGUCUG [Fam1A.1 aminoacylation ribozyme variant] | 0.528 | 0.646 | 0.469 | 0.665 | 0.593 | 0.71 |
| CUACUUCGAACAAUCGGCCUG [Fam1A.1 aminoacylation ribozyme variant] | 4.78 | 1.71 | 1.84 | 1.6 | 1.36 | 1.54 |
| AAGUUUGCCGAUAGUCGCAAG [Fam3.1 aminoacylation ribozyme variant] | 1.62 | 1.46 | 1.66 | 1.44 | 1.51 | 1.32 |
| AUUAACCUGGUCAUCGAGUAA [Fam2.1 aminoacylation ribozyme variant] | 1.05 | 0.99 | 1.02 | 0.983 | 1.08 | 1.09 |
| AUUACCCUGGUCAUCGAGGGC [Fam2.1 aminoacylation ribozyme variant] | 1.09 | 1.77 | 1.12 | 1.31 | 1.56 | 1.24 |
| AUUCACUUAGGUCAUCGGGUA [Fam2.2 aminoacylation ribozyme variant] | 1.49 | 2.38 | 1.96 | 2.29 | 1.89 | 2.15 |
| AUUCACCUAGGUCAGCGGAUG [Fam2.2 aminoacylation ribozyme variant] | 0.997 | 1.08 | 1.75 | 1.45 | 1.59 | 1.41 |
| AAGUUUGAUAAUAGUCGCCAG [Fam3.1 aminoacylation ribozyme variant] | 0.755 | 0.898 | 0.785 | 0.762 | 0.844 | 0.74 |
| CCACACUUCAAGCAAUGGAUC [Fam1B.1 aminoacylation ribozyme variant] | 1.04 | 0.538 | 0.369 | 0.56 | 0.438 | 0.611 |
| CCACACUUAAAGCAAUGGGUC [Fam1B.1 aminoacylation ribozyme variant] | 0.874 | 0.701 | 1.33 | 0.943 | 0.76 | 0.779 |
| CCACACUUCAAGCUAUCGGCC [Fam1B.1 aminoacylation ribozyme variant] | 0.862 | 1.7 | 1.81 | 1.62 | 1.82 | 1.51 |
| AUUACCCUGGUCAUCUAGCGA [Fam2.1 aminoacylation ribozyme variant] | 1.3 | 1.31 | 0.974 | 1.12 | 1.44 | 1.37 |
| AUUCACUUAGGUCAUCGGUUG [Fam2.2 aminoacylation ribozyme variant] | 0.69 | 0.764 | 0.519 | 0.87 | 0.901 | 0.831 |
| CUACUUCAAACACUCUGUCUG [Fam1A.1 aminoacylation ribozyme variant] | 0.709 | 0.608 | 0.678 | 0.797 | 0.547 | 0.724 |

| Sequence | self-aminoacylation [1] | self-aminoacylation [2] | self-aminoacylation [3] | self-aminoacylation [4] | self-aminoacylation [5] | self-aminoacylation [6] |
| --- | --- | --- | --- | --- | --- | --- |
| CCACUCUUCAAGCAAUCGCUC [Fam1B.1 aminoacylation ribozyme variant] | 0.837 | 1.69 | 1.08 | 1.41 | 1.68 | 1.77 |
| AUACACCUAGGUGAUCGGGUG [Fam2.2 aminoacylation ribozyme variant] | 16.4 | 3.56 | 4.59 | 3.87 | 3.88 | 2.6 |
| GUUACCCUGGUCAUUGAGUGA [Fam2.1 aminoacylation ribozyme variant] | 71.3 | 10.2 | 13 | 4.72 | 11 | 5.29 |
| CAACACUUCAAGCGAUCGGUC [Fam1B.1 aminoacylation ribozyme variant] | 1.94 | 1.29 | 1.81 | 1.27 | 1.55 | 1.25 |
| AUUCCCCGAGGUCAUCGGGUG [Fam2.2 aminoacylation ribozyme variant] | 188 | 22.7 | 20.2 | 12.5 | 29.9 | 14 |
| CUACUUAGAACAAUCGGUCUG [Fam1A.1 aminoacylation ribozyme variant] | 0.419 | 0.6 | 0.413 | 0.528 | 0.713 | 0.614 |
| AAGUUUGCUCAUAGUCGCCAG [Fam3.1 aminoacylation ribozyme variant] | 0.939 | 1.49 | 1.45 | 1.24 | 1.35 | 1.19 |
| CUACUUCAAACAAAUGGUCUG [Fam1A.1 aminoacylation ribozyme variant] | 0.655 | 0.576 | 0.587 | 0.86 | 0.719 | 0.735 |
| AUACUUAAAACAAUCGGUCUG [Fam1A.1 aminoacylation ribozyme variant] | 0.784 | 0.922 | 0.726 | 0.886 | 0.713 | 0.883 |
| AUUACCCUGGUCGUCGAGCGA [Fam2.1 aminoacylation ribozyme variant] | 3.35 | 1.56 | 1.4 | 1.22 | 2.17 | 1.58 |
| CAACACUUCGAGCAAUCGGUC [Fam1B.1 aminoacylation ribozyme variant] | 1.05 | 0.965 | 0.722 | 1.09 | 1.28 | 1.07 |
| AAGUUUGCUAAUAAUCGCAAU [Fam3.1 aminoacylation ribozyme variant] | 0.999 | 1.05 | 1.09 | 1.25 | 1.01 | 1.09 |
| CUACAUCCAACAAUCGGUCUG [Fam1A.1 aminoacylation ribozyme variant] | 1.05 | 1.05 | 0.803 | 0.672 | 0.793 | 0.678 |
| CCACACAUCAAGCACUCGGUC [Fam1B.1 aminoacylation ribozyme variant] | 0.805 | 1.02 | 0.94 | 0.935 | 0.724 | 1.18 |
| CUACUUCAAACUAUCGGGCUG [Fam1A.1 aminoacylation ribozyme variant] | 0.831 | 1.35 | 1.15 | 1.33 | 1.43 | 1.47 |
| CCACAAUUCAAGCUAUCGGUC [Fam1B.1 aminoacylation ribozyme variant] | 0.887 | 0.937 | 0.938 | 1.29 | 1.05 | 1.1 |
| CCACAUUUCAAGCAAUAGGUC [Fam1B.1 aminoacylation ribozyme variant] | 1.55 | 0.761 | 0.705 | 1.06 | 0.865 | 1.15 |
| GAGUUUGCUAAUAGACGCAAG [Fam3.1 aminoacylation ribozyme variant] | 0.88 | 0.407 | 1.06 | 0.707 | 0.552 | 0.606 |
| GCACACUUCAAGCAAUCGUUC [Fam1B.1 aminoacylation ribozyme variant] | 1.2 | 0.898 | 1.36 | 1.13 | 0.816 | 1.16 |
| CCACACUUCCAGCAAUUGGUC [Fam1B.1 aminoacylation ribozyme variant] | 0.778 | 0.596 | 0.881 | 0.943 | 0.632 | 0.958 |
| CUACUUCAAAAAAUCGGUCUG [Fam1A.1 aminoacylation ribozyme variant] | 11.8 | 0.758 | 7.37 | 1 | 0.92 | 0.795 |
| AAGUUUGCUCAUAGUCGCACG [Fam3.1 aminoacylation ribozyme variant] | 1.64 | 0.778 | 1.22 | 1.05 | 0.892 | 1.14 |
